# Results reported in US20250230171A1 (MOMA Therapeutics, Inc., priority 2023, published 2025).
# For at least one compound, name, drawing or mass did not settle the structure.
# Test system: DLD1 WT cells
# Experiment: 7-day cell viability assay (CellTiter-Glo), DLD1 parental (WT)
# Assay type: cell-based, human
# Settings: 7-day viability, n=2
# Protocol: Cell lines DLD1 WT and DLD1 BRCA2 (−/−) (Horizon Discovery Cat No. HD PAR-008 and HD-105-007) were plated in 384-well culture plates at seeding densities of 100cells/50 ul/well and 200 cells/50 uL/well respectively. The seeding densities are pre-determined from the growth curve kinetics performed to ensure log linear phase of cell growth for these 2 cell lines. These assay plates are then placed in the incubator at 37° C., 5% CO2, relative humidity >90% for a few hours before addition of test compounds. Compounds are dispensed using the Tecan HPD300 or Echo based on the plate map in the appropriate wells of the 384-well plates. The cells are treated with nine-point dose response with 3-fold serial dilutions of test compounds starting at 10 uM top concentration. After addition of the test compounds, the plates are incubated at 37° C., 5% CO2, relative humidity >90% for 7 days. CellTiter-Glo (Promega Cat. No. G7573), ATP detection reagent is prepared according to manufacturer's specifications. Cell assay plates are removed from incubator and bring to room temperature (RT) by letting them sit at bench top for at least 15 min. Using the MultiDrop liquid handler or a multichannel pipette, 35 μL/well of CTG is added and the plates are then placed shakes for 5 seconds, RT.
row,Compound,Viability IC50 (uM) DLD1 WT
1,"COc1cnc(Cl)cc1-c1cc(C)ncc1C(=O)Nc1nc2c(s1)CN(C(=O)c1ccc(Cl)nc1OC)C2 [Example 20, 2′-chloro-N-(5-(6-chloro-2-methoxynicotinoyl)-5,6-dihydro-4H-pyrrolo[3,4-d]thiazol-2-yl)-5′-methoxy-6-methyl-[4,4′-bipyridine]-3-carboxamide]",##∧
2,"COc1cnc(Cl)cc1-c1cc(C)ncc1C(=O)Nc1nc2c(s1)CN(C(=O)[C@H]1C[C@@H](OC(F)(F)F)C1)C2 [Example 25, 2′-chloro-5′-methoxy-6-methyl-N-(5-((1s,3s)-3-(trifluoromethoxy)cyclobutane-1-carbonyl)-5,6-dihydro-4H-pyrrolo[3,4-d]thiazol-2-yl)-[4,4′-bipyridine]-3-carboxamide]",##∧
3,"COc1cnc(Cl)cc1-c1cc(C)ncc1C(=O)Nc1nc2c(s1)CN(C(=O)c1c3c(nn1C)CCC3)C2 [Example 54, 2′-chloro-5′-methoxy-6-methyl-N-(5-(2-methyl-2,4,5,6-tetrahydrocyclopenta[c]pyrazole-3-carbonyl)-5,6-dihydro-4H-pyrrolo[3,4-d]thiazol-2-yl)-[4,4′-bipyridine]-3-carboxamide]",##∧
4,"CCc1nn(C)c(C(=O)N2Cc3nc(NC(=O)c4cnc(C)cc4-c4cc(Cl)ncc4OC)sc3C2)c1Cl [Example 56, 2′-chloro-N-(5-(4-chloro-3-ethyl-1-methyl-1H-pyrazole-5-carbonyl)-5,6-dihydro-4H-pyrrolo[3,4-d]thiazol-2-yl)-5′-methoxy-6-methyl-[4,4′-bipyridine]-3-carboxamide]",##∧
5,"CCc1c(Cl)c(C(=O)N2Cc3nc(NC(=O)c4cnc(C)cc4-c4cc(Cl)ncc4OC)sc3C2)nn1C [Example 70, 2′-chloro-N-(5-(4-chloro-5-ethyl-1-methyl-1H-pyrazole-3-carbonyl)-5,6-dihydro-4H-pyrrolo[3,4-d]thiazol-2-yl)-5′-methoxy-6-methyl-[4,4′-bipyridine]-3-carboxamide]",##∧
